These are yes or no findings as the source states them, for the method shown. In cells and extracts the contact can be indirect. Sequences can lack the tags named with a protein.
Target: T1, MYC-tagged full-length mouse MPP2 (MAGUK p55 subfamily member 2) (mouse) (UniProt Q9WV34)
T1 sequence: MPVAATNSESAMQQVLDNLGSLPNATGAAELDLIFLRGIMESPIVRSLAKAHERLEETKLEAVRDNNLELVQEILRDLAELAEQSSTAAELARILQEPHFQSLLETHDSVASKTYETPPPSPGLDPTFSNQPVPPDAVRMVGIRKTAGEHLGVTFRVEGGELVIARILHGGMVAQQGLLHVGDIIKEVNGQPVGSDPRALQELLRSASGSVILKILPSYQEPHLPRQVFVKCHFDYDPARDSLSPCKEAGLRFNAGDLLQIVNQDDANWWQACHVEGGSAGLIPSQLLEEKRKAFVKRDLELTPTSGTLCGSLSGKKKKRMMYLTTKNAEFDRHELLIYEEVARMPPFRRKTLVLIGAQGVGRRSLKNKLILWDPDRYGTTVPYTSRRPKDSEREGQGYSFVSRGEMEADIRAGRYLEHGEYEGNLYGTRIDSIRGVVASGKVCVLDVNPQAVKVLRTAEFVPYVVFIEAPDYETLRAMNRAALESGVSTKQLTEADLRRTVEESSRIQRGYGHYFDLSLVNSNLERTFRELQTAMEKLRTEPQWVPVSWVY
Test: co-IP; tagged recombinant proteins coexpressed in COS7 cells; lysis in 50 mM Tris pH 7.4, 100 mM NaCl, 1 mM EDTA, 1% Triton-X or 0.1% NP-40; IP with anti-MYC, anti-HA or anti-PSD-95 antibody (mouse IgG as control), protein-G-agarose, 4 °C; western blot

Substance	binding
mCherry-tagged CKAMP44 C-terminus (10 C-terminal amino acids) (domain or fragment)	no binding
mCherry-tagged Neuroligin-1 C-terminus (10 C-terminal amino acids) (domain or fragment)	no binding
mCherry-tagged NGL-1 C-terminus (10 C-terminal amino acids) (domain or fragment)	no binding
mCherry-tagged GluA2 C-terminus (10 C-terminal amino acids) (domain or fragment)	no binding
mCherry-tagged Stargazin/TARPγ2 C-terminus (10 C-terminal amino acids) (domain or fragment)	no binding
mCherry-tagged NR2B C-terminus (10 C-terminal amino acids) (domain or fragment)	no binding

— publication PMC5069480
